Data taken from patent US10766940B2, “Brain penetrant amylin receptor based peptides for Alzheimer's disease” (The Governors of the University of Alberta, priority 2016, dated 2020).
Not every detail of the peptide structures is certain; ends, links or a residue may be inferred. Positions of bridges follow the written chain, without caps; N, C: chain ends. Non-standard residues stand in square brackets, D forms with d. Residues, ends and D or L forms follow the SMILES beside them.

Legend:
Format in all cases: cell-based
[1] = test system: N2a mouse neuroblastoma cells; experiment: Aβ1-42 cytotoxicity (MTT) in N2a cells; settings: Aβ1-42 10 μM, peptide 10 μM pre-applied
Method: (§1) b) To investigate the antagonistic activity of peptides against Aβ cytotoxicity in vitro, HFNs and N2a cells were used. Cells were seeded to 5000 cells/well in a 96-well plate in MEM-10% FBS and DMEM/OptiMEM-5% FBS for overnight. […] At the end of treatment, 20 μl of 5 mg/ml methylthiazolyldiphenyl-tetrazolium bromide (MTT) was added to each well, and incubated at 37° C. for 3 hours. Medium was removed, 100 μl of MTT solvent (isopropanol with 4 mM HCl) added to each well, and the plates were incubated for 30 minutes at room temperature on a rotating shaker. Plates were analyzed on a microplate reader at a 562-nm wavelength. The Live/Dead assay kit was purchased from Invitrogen and assay followed the production instruction. The assayed cells were fixed with 4% paraformaldehyde in PBS and photo imaged with Axio Zeiss fluorescent microscopy. The dead cells were further counted using ImageJ software.
(§2) f) To investigate the antagonistic activity of peptide fragments against Aβ cytotoxicity in vitro, (human fetal neurons) HFNs, human neuroblastoma, SK-N-SH cells and N2a mouse neuroblastoma cells were used. Cells were seeded to 5000 cells/well in a 96-well plate in MEM-10% FBS and DMEM/OptiMEM-5% FBS for overnight. […] Plates were analyzed on a microplate reader at a 562-nm wavelength.

[2] = target: T1, AMY3 receptor (HEK293-AMY3 cells) (Homo sapiens, UniProt O60896+P30988); experiment: Flow cytometry binding and uptake of Cy5 labeled peptides in AMY3-HEK cells
T1 construct: expressed in transfected cells; AMY3-293 / AMY3-HEK)
T1 sequence (P30988 25-474): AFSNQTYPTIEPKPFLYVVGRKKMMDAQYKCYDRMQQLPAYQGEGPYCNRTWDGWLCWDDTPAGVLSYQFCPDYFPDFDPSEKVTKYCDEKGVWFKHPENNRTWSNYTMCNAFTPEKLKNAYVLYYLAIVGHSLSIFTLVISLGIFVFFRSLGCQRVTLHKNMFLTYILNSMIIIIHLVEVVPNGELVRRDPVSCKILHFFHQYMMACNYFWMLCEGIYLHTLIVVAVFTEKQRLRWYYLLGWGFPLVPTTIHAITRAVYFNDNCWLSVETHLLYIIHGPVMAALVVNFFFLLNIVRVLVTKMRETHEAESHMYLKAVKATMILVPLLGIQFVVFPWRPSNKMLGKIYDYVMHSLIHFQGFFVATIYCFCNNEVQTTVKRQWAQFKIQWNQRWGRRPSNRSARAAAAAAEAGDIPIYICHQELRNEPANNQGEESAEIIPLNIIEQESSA
T1 sequence (O60896 24-148 partner): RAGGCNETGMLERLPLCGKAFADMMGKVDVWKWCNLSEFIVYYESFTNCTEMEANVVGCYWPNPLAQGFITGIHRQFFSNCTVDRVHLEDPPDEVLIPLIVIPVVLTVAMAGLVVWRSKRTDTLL
Method: d) For flow cytometry studies, AMY3-293 cells were used to determine cell binding and uptake and binding of Cy5-AC253, and Cy5-cAC253 peptides. Cell were plated at a density of 1.5×10^5 cells/well and cultured overnight in 12-well plates at 37° C. Cy5 labelled peptides (5 μM) were added and incubated for 1 hour at 37° C. in serum free media. The culture media was discarded, and cell monolayers were washed with PBS containing 2 mM EDTA and 0.5% BSA adjusted to pH 7.4 at 37° C. Cells were washed again with cold buffer and incubated with 0.25% trypsin to remove cell surface-associated fluorophores. Cells were dispersed in FACS solution (10% FBS in PBS) and analyzed using a FACSCanto II flow cytometer (BD Biosciences, USA) selecting a detection window between 720 and 840 nm. Fluorescence histograms and dot plots were generated using the data were processed with FLOWJO software (Tree Star, Inc, USA). At least 10,000 gated events per sample were analyzed. The experiment was repeated with different peptide concentration ranging from 0.5-10 μM, and mean fluorescence intensity of peptides was extrapolated. To further study the cell uptake mechanism, cells were preincubated with cytochalasin D (cytoD, […]) for 30 minutes, and the experiment was repeated as above. To determine the energy dependent mechanism, cell uptake experiment was undertaken at 4° C., and for the competition experiment, cells was pre-incubated with amylin (30 μM) for 30 minutes, and the experiment was repeated.

[3] = test system: human fetal neurons (HFNs); experiment: Aβ1-42 cytotoxicity (MTT, live/dead) in human fetal neurons; settings: Aβ1-42 10 μM, peptide 10 μM pre-applied; MTT and live-dead assays
Method: as §1, §2

[4] = Cy5 labeled peptide 5 μM, 60 min, 37° C.

For `CC(C)C[C@@H]1NC(=O)[C@H](N)CSSC[C@H](C(N)=O)NC(=O)[C@H](Cc2ccc(O)cc2)NC(=O)[C@H]([C@@H](C)O)NC(=O)[C@H](CC(N)=O)NC(=O)[C@H](CO)NC(=O)CNC(=O)[C@H]([C@@H](C)O)NC(=O)[C@H](CC(N)=O)NC(=O)[C@H]([C@@H](C)O)NC(=O)[C@H](CCCNC(=N)N)NC(=O)[C@@H]2CCCN2C(=O)[C@H](Cc2ccc(O)cc2)NC(=O)[C@H]([C@@H](C)O)NC(=O)[C@H](CCC(N)=O)NC(=O)[C@H](CC(C)C)NC(=O)[C@H](CCCNC(=N)N)NC(=O)[C@H](Cc2c[nH]cn2)NC(=O)[C@H](CC(C)C)NC(=O)[C@H](CCC(=O)O)NC(=O)[C@H](CCC(N)=O)NC(=O)[C@H](CO)NC(=O)[C@H](CC(C)C)NC(=O)[C@H](CCCNC(=N)N)NC(=O)CNC1=O` [cAC253] (H-[dC]LGRLSQELHRLQTYPRTNTGSNTY[dC]-NH2; disulfide 1-26; N-terminus assumed), the “attenuation of Aβ1-42 induced cell death, N2a” value [1] was “attenuated”, the “mean fluorescence intensity at 4° C.” value ([2]; 4° C.) was 356.6±35 and the “enhanced binding and uptake compared to AC253” value [2, 4] was 3 fold. The “mean fluorescence intensity, binding and uptake” value [2, 4] was 3300, the “mean fluorescence intensity after pre-incubation with hAmylin” value ([2]; hAmylin (30 μM) pre-incubation 30 minutes) was 1250±200 and the “mean fluorescence intensity in the presence of cytoD” value ([2]; preincubation with cytochalasin D) was 1100±100. For the same molecule, the “attenuation of Aβ1-42 induced cell death, HFNs” value [3] was “attenuated”.
